Reference: PubChem BioAssay AID652259 (Drosophila RNAi Screening Center, 2013)
Aim: 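Knock-downs that push a Wingless-driven reporter up or down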 (primary screen). Cells: Drosophila clone 8 imaginal disc epithelial cells. Reagent: long dsRNA against Drosophila genes. Conditions: pathway stimulated by co-transfected Wingless expression plasmid. Detection: 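Firefly luciferase from a tcf-site Wingless reporter, measured alongside co-transfected Renilla luciferase that tracks transfection; pathway stimulated by a Wingless plasmid; the firefly-to-Renilla ratio is not deposited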. Direction: firefly reporter light: higher = more Wg reporter light, before normalisation; Renilla control light: higher = more transfected or surviving cells. Call rule: 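Strong candidates differ from their plate mean by at least two out of four per-plate statistical tests; weak candidates meet just one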. Calls: active = candidate regulator (raises or lowers reporter); inactive = not a candidate.
The screen tested about 22,000 reagents; below is a random part of those that have a named target and a result. Of all reagents, 233 (1.1%) were called active. 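Light values are raw, unnormalised plate reads; the ratio scores behind the reporter calls were not deposited.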 Not given: the amount of reagent, the time to read-out, the dose of the treatment.

gene,dsRNA,"reporter change call, replicate 1","firefly reporter light, replicate 1","firefly reporter light, replicate 2","Renilla control light, replicate 1","Renilla control light, replicate 2",Call
ghi,DRSC08985,,5337,7.42e5,2593,3.69e5,inactive
CG7024,DRSC18414,,18858,,7658,,inactive
mRpL1,DRSC16251,,12230,,3239,,inactive
5-HT1B,DRSC05031,,11126,,3128,,inactive
5-HT1B,DRSC05769,,8841,,2040,,inactive
Mst84B,DRSC12579,,16468,,4045,,inactive
lncRNA:CR43632,DRSC13730,,4496,,1696,,inactive
sba,DRSC13643,,3829,,752,,inactive
sba,DRSC17050,,10790,,9975,,inactive
CG13031,DRSC09911,,6692,,2939,,inactive
CG7903,DRSC16338,,6315,,3075,,inactive
Ir7b,DRSC18009,,13099,,8547,,inactive
Or74a,DRSC11245,,6355,,2589,,inactive
fs(1)Ya,DRSC18776,,2637,5796,884,1788,inactive
AdamTS-A,DRSC14992,,2583,,1719,,inactive
AdamTS-A,DRSC15966,,16995,,5532,,inactive
CG15922,DRSC15128,,21628,,5399,,inactive
BomT3,DRSC13537,,3760,,1803,,inactive
BomT3,DRSC15871,,36793,,7395,,inactive
CG30376,DRSC05086,,16896,,6800,,inactive
Hira,DRSC18672,,24972,,14026,,inactive
Tsp47F,DRSC07325,,6068,,1936,,inactive
Lon,DRSC11049,,6406,,2219,,inactive
ntc,DRSC08166,,5504,,2438,,inactive
CG1738,DRSC19772,,14152,,8935,,inactive
CG5021,DRSC10469,,1868,7856,1195,2944,inactive
Sirup,DRSC03031,,3211,7617,907,4134,inactive
CG13065,DRSC09948,,8421,,3211,,inactive
CG30091,DRSC21809,,5.06e5,4.56e5,2.30e5,1.94e5,inactive
Obp99b,DRSC16264,,8000,,2901,,inactive
Herc4,DRSC08631,,5638,,2969,,inactive
CG10663,DRSC09770,,7777,,1850,,inactive
CG31343,DRSC15887,,2677,5444,1368,2257,inactive
Oscillin,DRSC03001,,6197,5.75e5,2445,2.20e5,inactive
ND2 (retired record),DRSC21274,,19555,6.12e5,12819,2.79e5,inactive
Mettl14,DRSC03073,,11120,,4353,,inactive
Prosbeta4R2,DRSC00503,,5469,,3488,,inactive
Pgant6,DRSC08552,,14454,,5379,,inactive
pros,DRSC12856,,2410,,1507,,inactive
pros,DRSC17032,,9776,,4490,,inactive
pros,DRSC22612,,7.35e5,7.54e5,1.28e5,1.12e5,inactive
CR32733,DRSC17481,,3594,,836,,inactive
CG15083,DRSC06514,,8828,,2628,,inactive
CG13117,DRSC02215,,1677,4976,768,2672,inactive
aust,DRSC02558,,1808,5012,917,2157,inactive
CG44838,DRSC10330,Wg reporter activity raised,4688,,565,,active
CG44838,DRSC10371,,5578,,2121,,inactive
Cyp4g1,DRSC18459,,1963,6227,900,1477,inactive
SLO2,DRSC06212,,2918,7810,213,281,inactive
SLO2,DRSC06214,,3036,8689,668,3152,inactive
SLO2,DRSC06216,,2813,9699,563,2523,inactive
SLO2,DRSC06218,,2952,6007,761,3203,inactive
SLO2,DRSC06219,,3826,4390,368,776,inactive
Hr78,DRSC11866,,5139,,2232,,inactive
RhoGAP15B,DRSC19924,,2132,6755,963,2125,inactive
RhoGAP15B,DRSC19925,,14953,,8055,,inactive
CG12517,DRSC02173,,1928,3830,849,2187,inactive
CR18166,DRSC17260,,3860,,1303,,inactive
CR18166,DRSC18147,,15895,,8165,,inactive
lncRNA:CR43337,DRSC07893,,3780,,2268,,inactive
CG5056,DRSC02808,,2304,7961,858,4332,inactive
CG31109,DRSC14648,,18482,,17068,,inactive
CG13313,DRSC09984,,1656,6233,1469,3376,inactive
CG15767,DRSC18073,,24898,,9476,,inactive
link,DRSC06368,,5381,,1437,,inactive
CG34263,DRSC07866,,3574,,1633,,inactive
mRpS30,DRSC20107,,2112,6121,816,2040,inactive
CG10725,DRSC09788,,6299,,2604,,inactive
CG17724,DRSC06687,,7234,,2706,,inactive
wash,DRSC06302,,8312,,2188,,inactive
CG2256,DRSC18220,,22824,,12032,,inactive
Vm26Ab,DRSC03473,,4102,10579,1907,4497,inactive
CG30036,DRSC21334,,3.19e5,3.70e5,1.90e5,1.38e5,inactive
CG31855,DRSC02968,,1785,5622,787,1440,inactive
Cht2,DRSC08650,,19752,,4583,,inactive
Or67d,DRSC10158,,5884,,2736,,inactive
TfIIS,DRSC03455,,9936,,978,,inactive
beta-Spec,DRSC20311,,16570,,10221,,inactive
CG32945,DRSC12014,,2600,,1113,,inactive
CG32187,DRSC10521,,7360,,2521,,inactive
CG13840,DRSC14690,,20217,,12530,,inactive
sni,DRSC17770,,2307,4730,821,1721,inactive
Ets97D,DRSC16665,,8756,,3952,,inactive
Trmt112,DRSC11685,,28336,,6773,,inactive
beat-IIIa,DRSC01575,,21108,,9664,,inactive
beat-IIIa,DRSC01577,,22245,,8262,,inactive
beat-IIIa,DRSC02178,,3226,7813,1233,3991,inactive
NC2beta,DRSC01895,,23042,,2134,,inactive
CG9098,DRSC03136,,23264,,10042,,inactive
CG9098,DRSC22501,,7.79e5,7.34e5,3.18e5,2.96e5,inactive
RpL9,DRSC03418,,3572,8736,897,3348,inactive
Ntan1,DRSC07546,,9728,,2759,,inactive
CG6330,DRSC16022,,2339,4540,813,1737,inactive
